# Assay results published in publication PMC4513121.
# Protein sequences, listed by entry. Tags and fused reporters are not part of them. Lines headed by an entry give the natural chain unless they say otherwise; changes in a name come on top. Chains listed by the source or under a name are the forms on record and can include a tag or linker.
# UniProt P05412: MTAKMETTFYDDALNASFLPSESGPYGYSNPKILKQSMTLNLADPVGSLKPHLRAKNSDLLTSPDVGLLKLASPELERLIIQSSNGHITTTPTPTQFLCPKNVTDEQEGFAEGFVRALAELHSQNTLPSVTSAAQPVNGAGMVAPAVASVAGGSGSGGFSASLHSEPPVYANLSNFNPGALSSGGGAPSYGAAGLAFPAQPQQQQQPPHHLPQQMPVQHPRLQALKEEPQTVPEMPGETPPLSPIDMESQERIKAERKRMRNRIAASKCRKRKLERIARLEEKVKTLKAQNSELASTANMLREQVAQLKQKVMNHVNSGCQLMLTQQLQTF
# FLAG-tagged c-Jun^AA mutant (P05412, form named): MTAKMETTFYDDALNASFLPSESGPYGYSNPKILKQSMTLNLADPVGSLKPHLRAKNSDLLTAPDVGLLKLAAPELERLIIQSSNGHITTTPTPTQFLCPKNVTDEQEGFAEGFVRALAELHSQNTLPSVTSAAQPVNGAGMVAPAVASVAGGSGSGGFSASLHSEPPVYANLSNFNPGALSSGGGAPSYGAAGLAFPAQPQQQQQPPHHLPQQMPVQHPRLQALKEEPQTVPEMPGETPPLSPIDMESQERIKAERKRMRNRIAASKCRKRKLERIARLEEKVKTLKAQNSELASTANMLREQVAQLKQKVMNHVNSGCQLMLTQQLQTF
# Results are given in words; binding and its absence hold for the method and conditions named. In cells and extracts the contact can be indirect. Some binding calls cover weakened binding; strength is not graded here. Where a sequence is shown, tags or fusion partners need not be part of it.
# T1: FLAG-tagged TAp73^1–399 (UniProt O15350)
# T1 sequence: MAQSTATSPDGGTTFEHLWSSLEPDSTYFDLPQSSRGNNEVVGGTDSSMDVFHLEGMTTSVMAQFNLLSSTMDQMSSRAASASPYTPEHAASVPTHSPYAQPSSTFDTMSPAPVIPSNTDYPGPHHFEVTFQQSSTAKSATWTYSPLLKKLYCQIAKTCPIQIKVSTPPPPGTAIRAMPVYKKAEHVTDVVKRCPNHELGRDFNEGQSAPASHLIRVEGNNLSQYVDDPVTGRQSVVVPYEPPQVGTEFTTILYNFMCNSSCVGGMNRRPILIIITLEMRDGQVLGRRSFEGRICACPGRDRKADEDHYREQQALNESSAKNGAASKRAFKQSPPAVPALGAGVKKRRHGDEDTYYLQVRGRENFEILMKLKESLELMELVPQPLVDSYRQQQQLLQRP
# T2: FLAG-tagged TAp73^58–249 (UniProt O15350)
# T2 sequence: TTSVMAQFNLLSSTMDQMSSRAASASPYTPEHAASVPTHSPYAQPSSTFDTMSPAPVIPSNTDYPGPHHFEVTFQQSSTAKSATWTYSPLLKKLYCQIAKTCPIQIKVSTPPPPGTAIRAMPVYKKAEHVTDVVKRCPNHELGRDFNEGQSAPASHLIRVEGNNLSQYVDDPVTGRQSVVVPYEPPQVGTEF
# T3: FLAG-tagged TAp73^355–474 (UniProt O15350)
# T3 sequence: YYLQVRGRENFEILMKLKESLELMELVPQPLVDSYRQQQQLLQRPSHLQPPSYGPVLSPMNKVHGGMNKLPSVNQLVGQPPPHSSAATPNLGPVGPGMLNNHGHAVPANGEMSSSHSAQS
# Experiments:
# Test in all cases: co-IP; modified chromatin immunoprecipitation (ChIP-IP): transfected H1299 cells fixed with 1% formaldehyde 10 min, nuclear pellet lysed in 1% SDS, sonicated, diluted; the FLAG-tagged partner held on anti-FLAG-agarose beads; washes up to 500 mM NaCl and 0.25 M LiCl; cross-links reversed, DNase I; immunoblot. Also done after serum starvation, 20% serum for 4 h (interaction enhanced) or UV irradiation 60 J, 4 h (interaction significantly reduced)
# FLAG-tagged TAp73^1–399 = target: T1, FLAG-tagged TAp73^1–399
# FLAG-tagged TAp73^58–249 = target: T2, FLAG-tagged TAp73^58–249
# [1] = target: T3, FLAG-tagged TAp73^355–474
# [2] = target: FLAG-tagged c-Jun^AA mutant (UniProt P05412)
binding (FLAG-tagged TAp73^1–399),binding (FLAG-tagged TAp73^58–249),binding [1],binding [2],Molecule
binds,no binding,binds,–,c-Jun (untagged) (from UniProt P05412 1-331)
–,–,–,binds,"TAp73β (untagged) (protein, UniProt O15350-2 1-499) MAQSTATSPDGGTTFEHLWSSLEPDSTYFDLPQSSRGNNEVVGGTDSSMDVFHLEGMTTSVMAQFNLLSSTMDQMSSRAASASPYTPEHAASVPTHSPYAQPSSTFDTMSPAPVIPSNTDYPGPHHFEVTFQQSSTAKSATWTYSPLLKKLYCQIAKTCPIQIKVSTPPPPGTAIRAMPVYKKAEHVTDVVKRCPNHELGRDFNEGQSAPASHLIRVEGNNLSQYVDDPVTGRQSVVVPYEPPQVGTEFTTILYNFMCNSSCVGGMNRRPILIIITLEMRDGQVLGRRSFEGRICACPGRDRKADEDHYREQQALNESSAKNGAASKRAFKQSPPAVPALGAGVKKRRHGDEDTYYLQVRGRENFEILMKLKESLELMELVPQPLVDSYRQQQQLLQRPSHLQPPSYGPVLSPMNKVHGGMNKLPSVNQLVGQPPPHSSAATPNLGPVGPGMLNNHGHAVPANGEMSSSHSAQSMVSGSHCTPPPPYHADPSLVRTWGP"
